Reference: article PMC10350107
Results are given in words; binding and its absence hold for the method and conditions named. Where a sequence is shown, tags or fusion partners need not be part of it.

Target: T1, FLAG-MCM8, wild type human MCM8 (human), Q9UJA3
T1 chain: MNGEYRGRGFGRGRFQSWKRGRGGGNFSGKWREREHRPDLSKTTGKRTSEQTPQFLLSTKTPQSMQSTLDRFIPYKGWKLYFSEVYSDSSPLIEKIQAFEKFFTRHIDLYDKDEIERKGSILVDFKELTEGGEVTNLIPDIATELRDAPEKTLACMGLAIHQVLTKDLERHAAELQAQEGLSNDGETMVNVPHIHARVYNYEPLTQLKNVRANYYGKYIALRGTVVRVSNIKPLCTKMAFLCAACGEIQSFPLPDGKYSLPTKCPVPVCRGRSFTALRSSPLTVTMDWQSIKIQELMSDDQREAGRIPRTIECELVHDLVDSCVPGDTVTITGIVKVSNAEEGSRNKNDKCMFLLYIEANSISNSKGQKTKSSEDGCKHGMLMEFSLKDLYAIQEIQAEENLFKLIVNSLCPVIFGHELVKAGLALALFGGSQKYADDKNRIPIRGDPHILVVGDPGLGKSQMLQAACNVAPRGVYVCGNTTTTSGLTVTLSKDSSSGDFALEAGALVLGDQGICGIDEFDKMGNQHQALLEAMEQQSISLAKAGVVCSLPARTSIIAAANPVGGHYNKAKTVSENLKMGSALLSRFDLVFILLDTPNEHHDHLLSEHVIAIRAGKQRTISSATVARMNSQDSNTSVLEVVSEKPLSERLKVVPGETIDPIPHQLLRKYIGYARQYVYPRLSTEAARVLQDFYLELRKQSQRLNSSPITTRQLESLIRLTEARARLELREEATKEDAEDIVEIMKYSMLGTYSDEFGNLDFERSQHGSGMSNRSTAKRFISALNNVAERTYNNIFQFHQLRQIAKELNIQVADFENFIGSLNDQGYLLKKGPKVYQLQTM
Test: mass photometry; 50 mM Tris-HCl pH 7.5, 100 mM NaCl; 50–200 nM final protein; no DNA; for MCM8–9 oligomers are counted in subunits (heterodimer 266 kDa, hexamer 798 kDa): heterodimers to tetramers and hexamers; both purified
Conditions: remark: other sources report otherwise

binding: no binding
B1: FLAG-MCM8, wild type human MCM8, Q9UJA3 1-840 (protein)
chain: T1 chain
